## Library screen at single concentrations

Mtb glucose medium: 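Phenotypic screen: M. tuberculosis growth, glucose 7H9 medium, 3 days; the read-out is not stated. Compounds at 500 µM. Direction is inferred from retests: higher values go with more growth inhibition. Size under these conditions: about 18,000 compounds, about 1,400 of them at 50% or above in at least one test.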
Mtb cholesterol medium: 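Phenotypic screen: M. tuberculosis growth, cholesterol and DPPC medium, 4 days; the read-out is not stated. Compounds at 500 µM. Higher reads as more growth inhibition (inferred: compounds with an IC50 in retests scored well above the rest). Size under these conditions: about 18,000 compounds, about 900 of them at 50% or above in at least one test.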

Each number is a percent effect as filed.
The record does not define 0% and 100%; most values in the screen are far below 50% and negative numbers occur (in some assays of this library far below -100).
The compounds are a random part of those screened.

| Compound | Mtb glucose medium | Mtb cholesterol medium |
|---|---|---|
| `Cc1cc(C(=O)N2CCC[C@@H](N)C2)on1` | 4.095% | -6.489% |
| `COCCSC(C)C(=O)NC1(C#N)CCCCC1` (configuration not stated) | 12.13% | 2.493% |
| `Cn1ccnc1CN1CCN(Cc2ccncc2)CC1` | 0.7017% | 4.425% |
| `NC(=O)N1CCCC(C(=O)NCc2ccccc2)C1` (configuration not stated) | 7.51% | 2.196% |
| `Cc1c[nH]c(C(=O)N2C[C@@H](N(C)C)[C@H](C(C)C)C2)n1` | 9.655% | 16.23% |
| `Nc1n[nH]c(SCC(=O)Nc2nccs2)n1` | -10.31% | -30.12% |
| `O=C(Nc1cnccn1)c1ncccc1O` | -7.382% | -14.58% |
| `O=C(Nc1cccc(OCC(F)F)n1)C1CCOC1` (configuration not stated) | 15.56% | 8.313% |
| `CC(C)NC(=O)Cn1c(=O)oc2ccc(Cl)cc21` | -5.342% | -9.025% |
| `NC(=O)NC(=O)CCn1cc(I)cn1` | 8.069% | 10.33% |
| `Cc1cccc2c1C(=O)NCCN2` | -0.9214% | -10.24% |
| `CC(=O)NCCNC(=O)CC(C)C1CCCCC1` (configuration not stated) | 14.68% | 9.143% |
| `Cc1cc(C)n(CC(=O)Nc2ccc(C(N)=O)cc2)n1` | 8.651% | 10.31% |
| `O=C(CCc1ccc(F)cc1)NCC1CCNC1` (configuration not stated) | -3.876% | -9.061% |
| `C[C@@H](N)C(=O)N1Cc2ccccc2C1` | 5.562% | -11.57% |
| `NCC1CCN(Cc2ccsc2)CC1` | 1.746% | -2.431% |
| `OC(Cn1nnnc1-c1ccccn1)CC(F)(F)F` (configuration not stated) | 10.93% | -4.149% |
| `NCc1nnc(CCc2ccccc2)o1` | 35.55% | 21.49% |
| `Cc1nsc(NC(=O)N2CCC(N)CC2)n1` | 7.038% | 10.63% |
| `Cc1cccc(C)c1NC(=O)CN1CCNCC1` | -5.374% | 6.605% |
| `CN1CCCC(CNC(=O)NCc2ccncc2)C1` (configuration not stated) | 8.536% | -10.1% |
| `CC1CN(C)CCN1C(=O)Nc1ccccn1` (configuration not stated) | 6.12% | 0.6681% |
| `CC(C)(C)CNCc1cccnc1N1CCOCC1` | 20.91% | -4.711% |
| `Cc1ccc(C(C)NC(=O)CNC(=O)C2CCCC2)o1` (configuration not stated) | -0.02434% | -8.925% |
| `COc1ccc(NC(=O)c2ccc(Br)cn2)cc1CO` | -18.64% | -17.96% |
| `Cc1cc(C(=O)N(C)Cc2ccncc2C)[nH]n1` | 9.666% | 10.79% |
| `CCN(CCC#N)C(=O)Cn1ccc2sccc2c1=O` | 3.6% | 14.85% |
| `Cc1ccc(OC2CN(C(=O)[C@H](N)C(C)C)C2)cc1` | 54.26% | 45.67% |
| `Cc1cn(C)c(=O)[nH]c1=O` | -0.885% | -2.77% |
| `O=C(Cc1cccs1)Nc1ncccn1` | -1.221% | -5.631% |
| `CC(C)c1cc(C(=O)NC(C#N)C2CC2)n(C)n1` (configuration not stated) | 33.96% | 17.09% |
| `CNC1CC(=O)N(Cc2ccccc2)C1=O` (configuration not stated) | 3.068% | 1.407% |
| `COc1cccc(NC(=O)CCN2C(=O)CCC2=O)c1` | -4.727% | -3.882% |
| `COCc1ccccc1CNC(=O)c1nc(C)ns1` | 72.27% | 59.68% |
| `CCOCCOc1ccccc1NC(=O)NCCF` | 12.05% | 6.614% |
| `CC(SCc1cccc(C(=O)N(C)C)c1)C(N)=O` (configuration not stated) | 8.28% | 2.245% |
| `CS(=O)(=O)Nc1ccc(N2CCNCC2)cc1` | 7.693% | 24.42% |
| `COC(=O)c1ccc(NCc2cc[nH]n2)c(OC)c1` | 24.33% | 13.63% |
| `CNS(=O)(=O)c1csc(C(=O)N(CC(F)F)C2CC2)c1` | 7.158% | 9.916% |
| `N#Cc1ccc(C(=O)NCC2CC2)cc1` | 58.71% | 54.35% |
| `CS(=O)(=O)CC(NCc1cc[nH]n1)c1ccccc1` (configuration not stated) | 10.65% | 3.173% |
| `CN(Cc1nc2ccccc2s1)S(C)(=O)=O` | 49.27% | 23.78% |
| `CCOc1ccc(S(=O)(=O)NC2CC2)cc1NC(C)=O` | 23.88% | 19.31% |
| `COC(=O)CCNC(=O)c1c(C)nn(C)c1C` | 1.64% | -15.91% |
| `CCCn1ccnc1CNC(=O)[C@H]1CCC[C@@H](O)C1` | -15.11% | -8.807% |
| `NCc1cccc(Oc2ccc(F)cc2)n1` | -7.826% | -4.892% |
| `COCCN1CCCN(C(=O)c2sccc2Br)CC1` | 44.99% | 23.71% |
| `c1ccc(CNCCOc2ccccn2)cc1` | 19.1% | 37.95% |
| `Cc1c[nH]c(C(C)NC(=O)c2ccc(CO)cc2)n1` (configuration not stated) | 1.06% | 4.567% |
| `COc1ccc(CSCC(N)=O)cc1Br` | 66.31% | 63.17% |
| `CC(=O)Nc1ccccc1C(=O)N(C)C` | 7.6% | -1.109% |
| `OCC1CCCN(Cc2cccc3c2OCO3)C1` (configuration not stated) | 3.953% | 0.2751% |
| `COc1cccc(C(=O)NCc2ccoc2C)n1` | 55.27% | 35.8% |
| `COc1cc(CNC(=O)CSc2nccn2C)ccn1` | 29.06% | 4.007% |
| `O=C(CC1NCCNC1=O)Nc1ccc(F)c(Cl)c1` (configuration not stated) | 15.54% | 7.329% |
| `COCCSCC(=O)Nc1cnn(C)c1` | 0% | 8.198% |
| `CNc1ccnc(NCCS(=O)(=O)N2CCCC2)n1` | 17.89% | -12.97% |
| `CC(C(N)=O)N1CCN(Cc2ccc(Cl)c(F)c2)CC1` (configuration not stated) | 30.91% | 20.11% |
| `CC(CO)NC(=O)NCc1cnn(-c2ccccc2)c1` (configuration not stated) | 23.08% | 6.274% |
| `NCc1cccc(-c2cccnc2)c1` | 37% | 23.4% |
| `OCC(O)CSCc1ncc(-c2cccc(Cl)c2)o1` (configuration not stated) | 60.88% | 49.1% |
| `Cn1cc(NC(=O)c2cc(Cl)cn2C)cn1` | 26.71% | -19.06% |
| `NC(=O)CC1CCN(CC(=O)NCC(F)(F)F)CC1` | -23.19% | -30.61% |
| `O=C(CC1COCCN1)NCCCc1ccccc1F` (configuration not stated) | 25.03% | 3.142% |
| `CNCc1csc(C(C)C)n1` | -21.21% | -13.8% |
| `CC(C)(CO)CNC(=O)c1c(O)cccc1F` | -4.2% | -14.45% |
| `O=S1(=O)CC(CO)c2ccccc21` (configuration not stated) | 7.987% | 8.471% |
| `CC(C)NS(=O)(=O)c1cccc(C#N)c1` | 16.91% | 9.152% |
| `CC(O)CNc1ncccc1I` (configuration not stated) | 21.13% | 12.25% |
| `CC(=O)N1CCC(C(O)c2ccccc2)CC1` (configuration not stated) | 13.6% | 6.914% |
| `CNc1nc(SCC(N)=O)nc(N2CCOCC2)n1` | 1.873% | 1.342% |

Once more, the final 9:

Compound	Mtb glucose medium	Mtb cholesterol medium
NC(=O)CC1CCN(CC(=O)NCC(F)(F)F)CC1	-23.19%	-30.61%
O=C(CC1COCCN1)NCCCc1ccccc1F (configuration not stated)	25.03%	3.142%
CNCc1csc(C(C)C)n1	-21.21%	-13.8%
CC(C)(CO)CNC(=O)c1c(O)cccc1F	-4.2%	-14.45%
O=S1(=O)CC(CO)c2ccccc21 (configuration not stated)	7.987%	8.471%
CC(C)NS(=O)(=O)c1cccc(C#N)c1	16.91%	9.152%
CC(O)CNc1ncccc1I (configuration not stated)	21.13%	12.25%
CC(=O)N1CCC(C(O)c2ccccc2)CC1 (configuration not stated)	13.6%	6.914%
CNc1nc(SCC(N)=O)nc(N2CCOCC2)n1	1.873%	1.342%

Measurements from “University of Dundee, Small-Polar-MMV Screening Library” (2021), ChEMBL document CHEMBL3988442.